The whole screen tested about 580,000 compounds, of which about 6,100 (1.1%) were called active. This list was built around the results that the source calls inconclusive (neither active nor inactive); the mix of calls is not that of the screen. Calls follow the shape of the dose curve; as a rule, active = well fitted inhibition curve with a large enough effect; inconclusive = small, poorly fitted or top-dose-only effect, or another doubt; inactive = no such curve, though single readings can be large or run the other way. Where the call is inconclusive, the potency comes from a doubtful curve fit.
Target: Polyunsaturated fatty acid lipoxygenase ALOX12 (Homo sapiens) (UniProt P18054)
Assay: Primary qHTS assay for inhibitors of human arachidonate 12S-lipoxygenase (ALOX12): Round 2
Settings: purified 12hLO, xylenol orange hydroperoxide absorbance; series mostly up to 108 µM
Method in brief: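 Purified human 12hLO (150 nM final) in 25 mM Hepes, 0.01% Triton X-100, pH 7.0 was preincubated 15 min at room temperature with compound. Then 40 uM arachidonic acid was added, 30 min. Hydroperoxide was read by Fe-XO absorbance ratio 573/405 nm.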
Potency is read from the fitted curve at half-maximal effect.

Chains of the proteins cited; added tags and fusions are not shown.
UniProt P18054, whole entry, looked up: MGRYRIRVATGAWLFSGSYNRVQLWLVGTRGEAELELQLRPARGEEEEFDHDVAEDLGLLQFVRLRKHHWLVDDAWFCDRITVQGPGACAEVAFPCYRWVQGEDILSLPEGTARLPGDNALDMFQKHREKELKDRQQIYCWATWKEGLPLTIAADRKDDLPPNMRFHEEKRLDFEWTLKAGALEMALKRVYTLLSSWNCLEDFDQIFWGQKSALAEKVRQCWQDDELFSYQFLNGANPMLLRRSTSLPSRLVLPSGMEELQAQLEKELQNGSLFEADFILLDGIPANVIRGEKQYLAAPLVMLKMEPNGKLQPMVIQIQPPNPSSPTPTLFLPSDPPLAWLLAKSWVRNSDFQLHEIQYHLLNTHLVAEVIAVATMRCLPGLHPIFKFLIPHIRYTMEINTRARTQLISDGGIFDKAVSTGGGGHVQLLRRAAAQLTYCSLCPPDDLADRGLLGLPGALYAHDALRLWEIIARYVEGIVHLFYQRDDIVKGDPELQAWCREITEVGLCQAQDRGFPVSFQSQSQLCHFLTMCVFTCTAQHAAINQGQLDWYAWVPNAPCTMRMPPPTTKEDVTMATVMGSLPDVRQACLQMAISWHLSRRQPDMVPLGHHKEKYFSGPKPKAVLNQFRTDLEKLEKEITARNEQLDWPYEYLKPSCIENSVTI

| Structure (SMILES) | Potency |
| --- | --- |
| CCOC(=O)C1=C(c2cccc(Oc3ccccc3)c2)NC(=S)NC1C (centres undefined) | inconclusive: 44.7 µM [inhibitor, single point] |
| O=C(CN(c1ccccc1)S(=O)(=O)c1ccccc1)Nc1ccccc1C(=O)NCc1ccco1 | inactive |
| CCC(=O)N1c2ccccc2CC1C(=O)NCCN1CCN(c2cccc(Cl)c2)CC1 (centres undefined) | inactive |
| Cc1cc(O)c(C(C)C)cc1N=Cc1ccccc1[N+](=O)[O-] | inconclusive: 11.2 µM [inhibitor, full curve, poor fit] |
| COc1ccc(CNC(=O)c2ccc(CS(=O)(=O)c3ccc(OC)cc3)o2)cc1 | inactive |
| COc1cccc(-c2nnc(NC(=O)c3ccc(S(=O)(=O)N4CC(C)OC(C)C4)cc3)o2)c1 (centres undefined) | inactive |
| O=c1c2ccccc2nc2sc(COc3ccc(Br)cc3)nn12 | inactive |
| N#Cc1cc(N)ccc1Sc1ccccc1 | inconclusive: 20 µM [inhibitor, full curve, poor fit] |
| CCCCOC(=O)C1CN(c2ccccc2)N=C1C(=O)OCC (centres undefined) | inactive |
| O=C1NCc2ccccc2CC12CCN(Cc1ccc(Cl)s1)C2 (centres undefined) | inconclusive: 44.7 µM [inhibitor, partial curve] |
| O=C(CN1CCN(Cc2ccccc2)CC1)Nc1ccccc1-c1ccccc1 | inactive |
| CCCC(=O)Nc1ccc(C(=O)NNC(=S)NC(=O)c2ccc(Br)o2)cc1 | inactive |
| COc1ccc(CCN(Cc2ccccc2F)CC2(O)CCCNC2)cc1 (centres undefined) | inactive |
| O=C(O)Cn1nc(-c2ccccc2)ccc1=O | inconclusive: 100 µM [inhibitor, single point] |
| O=C(NCCCNC(=O)c1cccs1)c1cccs1 | inactive |
| CC1(C)Cc2c(C#N)c(N3CCCC3)nc(-c3ccco3)c2CO1 | inconclusive: 50.1 µM [inhibitor, partial curve, poor fit] |
| N#CCc1nc(-c2ccc3c(c2)OCCO3)cs1 | inconclusive: 31.6 µM [inhibitor, partial curve] |
| COc1cc(-c2ccnc(-c3nnc(C)n3C3CCCCC3)c2)ccn1 | inactive |
| CCC(=O)Nc1ccc(C=C(C(C)=O)C(C)=O)cc1 | inconclusive: 35.5 µM [inhibitor, partial curve, poor fit] |
| O=[S+]([O-])(NC1CCN(c2nc3ncccc3o2)CC1)c1cccc(C(F)(F)F)c1 | inconclusive: 70.8 µM [inhibitor, partial curve] |
| Cc1cccc2c1-c1sc(C(=O)Nc3ccccc3C(N)=O)cc1CO2 | inconclusive: 112 µM [inhibitor, partial curve, poor fit] |
| CCCCn1nnnc1C(C1CC1)N1C(=O)C(=O)c2ccccc21 (centres undefined) | inconclusive: 44.7 µM [inhibitor, partial curve, poor fit] |
| Cc1ccccc1OCC(=O)NCC(c1ccc(Cl)cc1)N1CCOCC1 (centres undefined) | inactive |

A portion from the list above:

| Structure (SMILES) | Potency |
| --- | --- |
| N#Cc1cc(N)ccc1Sc1ccccc1 | inconclusive: 20 µM [inhibitor, full curve, poor fit] |
| CCCCOC(=O)C1CN(c2ccccc2)N=C1C(=O)OCC (centres undefined) | inactive |
| O=C1NCc2ccccc2CC12CCN(Cc1ccc(Cl)s1)C2 (centres undefined) | inconclusive: 44.7 µM [inhibitor, partial curve] |
| O=C(CN1CCN(Cc2ccccc2)CC1)Nc1ccccc1-c1ccccc1 | inactive |

The results go on.

| Structure (SMILES) | Potency |
| --- | --- |
| COc1cccc(C(=O)COc2cccc(NC(=O)c3cccc([N+](=O)[O-])c3)c2)c1 | inactive |
| CCn1cc(C(=O)N2CCN(Cc3ccc4c(c3)OCO4)CC2)c2cc(OC)c(OC)cc2c1=O | inconclusive: 126 µM [inhibitor, partial curve, poor fit] |
| Cc1ccc(CNCc2ccc3c(c2)OCO3)cc1 | inconclusive: 39.8 µM [inhibitor, partial curve, poor fit] |
| CCCNC(=O)c1noc(-c2ccc(C#N)cc2)n1 | inactive |
| Cc1c(C(=O)N(C)c2ccccc2)sc2nc(-c3ccc(F)cc3)cn12 | inactive |
| CN(C)CCNC(=O)c1cccc(-c2cnc3ccc(-c4cccc(F)c4)nn23)c1 | inactive |
| O=C(Nc1ccccc1O)c1ccc2c(c1)C(=O)N(N1C(=O)c3ccccc3C1=O)C2=O | inactive |
| Oc1ccccc1CN1CCNc2cc(Nc3cccnc3)ncc2C1 | inconclusive: 56.2 µM [inhibitor, partial curve, poor fit] |
| Cc1nc2nc(CC(=O)Nc3ccccc3)nn2c(C)c1Cc1ccc(Cl)cc1 | inconclusive: 5.01 µM [inhibitor, partial curve, poor fit] |
| Cc1ccc(-c2cc(C(=O)N3CCCC3)c3ccccc3n2)s1 | inconclusive: 50.1 µM [inhibitor, partial curve, poor fit] |
| O=C(CN1CCN(S(=O)(=O)c2ccc3ccccc3c2)CC1)Nc1ccc2c(c1)CCC2 | inactive |
| CC1(C(=O)NCCc2c[nH]c3ccccc23)CCCCC(=O)N1 (centres undefined) | inactive |
| Cc1ccc(-c2n[nH]c(=S)n2/N=C/c2ccncc2)cc1 | inconclusive: 44.7 µM [inhibitor, partial curve, poor fit] |
| O=C(COC(=O)/C=C/c1ccccc1Cl)NCCNC(=O)COC(=O)/C=C/c1ccccc1Cl | inconclusive: 25.1 µM [inhibitor, single point] |
| CC(=O)c1cccc(CN(C)CC2CCCN(CCc3ccccc3C)C2)c1 (centres undefined) | inactive |
| NNc1nc2c(Cl)ccc(Cl)c2s1 | inconclusive: 28.2 µM [inhibitor, partial curve] |
| O=C(c1cc(C(F)(F)F)[nH]n1)N1CC[C@@H](c2ccc(F)cc2)[C@H](O)C1 | inconclusive: 12.6 µM [inhibitor, full curve] |
| Cn1nc(CC(=O)Nc2ccc(OC(=O)c3ccccc3)cc2)c2ccccc2c1=O | inconclusive: 56.2 µM [inhibitor, partial curve, poor fit] |
| CCc1ccc(S(=O)(=O)ON2C(=O)c3ccccc3C2=O)cc1 | inconclusive: 39.8 µM [inhibitor, partial curve, poor fit] |
| Cc1ccc(CN2CCN(CC(=O)N/N=C/c3c[nH]c4ccccc34)CC2)cc1 | inconclusive: 3.98 µM [inhibitor, full curve, poor fit] |
| Cc1ccccc1SCC(=O)OCC(=O)N(C)c1c(N)n(Cc2ccccc2)c(=O)[nH]c1=O | inconclusive: 50.1 µM [inhibitor, single point] |
| CCC(=O)N1CCN(c2oc(/C=C/c3ccc(OC)cc3)nc2C#N)CC1 | inactive |
| C/C(=N\NC(=O)CO/N=C(\C)c1cccs1)c1ccc(N)cc1 | inactive |

| Structure (SMILES) | Potency |
| --- | --- |
| CCN1C(=O)[C@@H]2[C@@H](c3ccc(SC4CCCCC4)c(OC)c3)N3CCCC[C@@]3(C(=O)OC)[C@@H]2C1=O | inconclusive: 50.1 µM [inhibitor, partial curve, poor fit] |
| O=c1[nH]nc(-c2cccs2)c2ccccc12 | inconclusive: 0.251 µM [inhibitor, full curve, poor fit] |
| CC1CN(C(=O)N[C@@H](Cc2ccccc2)C(=O)O)CC(C)O1 (some centres undefined) | inconclusive: 35.5 µM [inhibitor, single point] |
| COc1cc(NS(=O)(=O)c2ccc(NC(=S)NC(=O)c3ccco3)cc2)nc(OC)n1 | inconclusive: 44.7 µM [inhibitor, partial curve] |
| CCC(C)Sc1nc2c(c(=O)[nH]c(=O)n2C)n1CC(O)COc1cccc2ccccc12 (centres undefined) | inconclusive: 17.8 µM [inhibitor, partial curve, poor fit] |
| O=c1c(-c2ccc(F)cc2)nc2cnc(N3CCOCC3)nc2n1C1CC1 | inconclusive: 31.6 µM [inhibitor, single point] |
| CCCCCCSc1ccc([C@@H]2[C@H]3C(=O)N(C)C(=O)[C@H]3[C@]3(C(=O)OC)CCCCN23)cc1 | inconclusive: 44.7 µM [inhibitor, partial curve, poor fit] |
| CC1CCC(NC(=O)c2cc(-c3ccncc3)nc3ccccc23)CC1 (centres undefined) | inactive |
| COc1ccc(CN2CCNC(=O)C2CC(=O)NCCc2nc(C)c(C)s2)c(OC)c1 (centres undefined) | inactive |
| CCc1nnc(NC(=O)c2ccc3ncsc3c2)s1 | inconclusive: 112 µM [inhibitor, single point] |
| Cc1cc(OC2CN(Cc3ccc(F)cc3)C2)ccc1F | inconclusive: 63.1 µM [inhibitor, partial curve] |
| O=C(CSc1nc2c([nH]c3ccccc32)c(=O)n1-c1ccccc1)NCC1CCCO1 (centres undefined) | inactive |
| CC1(C(=O)Nc2ccccc2F)CCN1C(=O)Cc1ccc(-c2ccccc2)cc1 (centres undefined) | inconclusive: 100 µM [inhibitor, single point] |
| CCCn1c(N)c(C(=O)CSc2ccc3ccccc3n2)c(=O)[nH]c1=O | inconclusive: 56.2 µM [inhibitor, partial curve, poor fit] |
| CC1CN(Cc2ccccc2Cl)CC(C)O1 (centres undefined) | inconclusive: 0.355 µM [inhibitor, full curve, poor fit] |
| Cc1ccc(S(=O)(=O)NC2CC(C)(C)N(O)C(C)(C)C2)cc1 | inconclusive: 89.1 µM [inhibitor, single point] |
| CCOc1cc(C)c(Cl)cc1S(=O)(=O)NCc1ccc2c(c1)OCO2 | inconclusive: 126 µM [inhibitor, single point] |
| Cc1cc(C)c2ccc(N)nc2c1O | inconclusive: 31.6 µM [inhibitor, partial curve, poor fit] |
| COc1cccc(-c2n[nH]c3c2C(c2cccc(O)c2)N(C)C3=O)c1 (centres undefined) | inconclusive: 50.1 µM [inhibitor, partial curve, poor fit] |
| Cc1cc(Cl)c(OCCN2C(=O)NC(C)(C)C2=O)c(Br)c1 | inactive |
| CCN(CC)c1ccc(N=C2C=CC(=O)C=C2NC(C)=O)cc1 | inconclusive: 7.08 µM [inhibitor, partial curve, poor fit] |
| O=C(COc1cccnc1[N+](=O)[O-])NCc1ccccc1 | inconclusive: 100 µM [inhibitor, single point] |
| CCOC(=O)C1=C(C)N=C2SC=C(CC(=O)NCc3ccco3)N2C1c1cccc([N+](=O)[O-])c1 (centres undefined) | inconclusive: 8.91 µM [inhibitor, full curve] |

— PubChem BioAssay AID1671190 (National Center for Advancing Translational Sciences (NCATS), 2021)
